Test results as given in paper PMC5005036, “PDZD7-MYO7A complex identified in enriched stereocilia membranes” (eLife, 2016).
These are yes or no findings as the source states them, for the method shown. Binding seen in cells or lysates may run through a third protein. Some results given as binding are weak or reduced against the parent protein; the word gives no strength.

Amino acid sequences for entries named in this document (tags omitted).
UniProt P97479: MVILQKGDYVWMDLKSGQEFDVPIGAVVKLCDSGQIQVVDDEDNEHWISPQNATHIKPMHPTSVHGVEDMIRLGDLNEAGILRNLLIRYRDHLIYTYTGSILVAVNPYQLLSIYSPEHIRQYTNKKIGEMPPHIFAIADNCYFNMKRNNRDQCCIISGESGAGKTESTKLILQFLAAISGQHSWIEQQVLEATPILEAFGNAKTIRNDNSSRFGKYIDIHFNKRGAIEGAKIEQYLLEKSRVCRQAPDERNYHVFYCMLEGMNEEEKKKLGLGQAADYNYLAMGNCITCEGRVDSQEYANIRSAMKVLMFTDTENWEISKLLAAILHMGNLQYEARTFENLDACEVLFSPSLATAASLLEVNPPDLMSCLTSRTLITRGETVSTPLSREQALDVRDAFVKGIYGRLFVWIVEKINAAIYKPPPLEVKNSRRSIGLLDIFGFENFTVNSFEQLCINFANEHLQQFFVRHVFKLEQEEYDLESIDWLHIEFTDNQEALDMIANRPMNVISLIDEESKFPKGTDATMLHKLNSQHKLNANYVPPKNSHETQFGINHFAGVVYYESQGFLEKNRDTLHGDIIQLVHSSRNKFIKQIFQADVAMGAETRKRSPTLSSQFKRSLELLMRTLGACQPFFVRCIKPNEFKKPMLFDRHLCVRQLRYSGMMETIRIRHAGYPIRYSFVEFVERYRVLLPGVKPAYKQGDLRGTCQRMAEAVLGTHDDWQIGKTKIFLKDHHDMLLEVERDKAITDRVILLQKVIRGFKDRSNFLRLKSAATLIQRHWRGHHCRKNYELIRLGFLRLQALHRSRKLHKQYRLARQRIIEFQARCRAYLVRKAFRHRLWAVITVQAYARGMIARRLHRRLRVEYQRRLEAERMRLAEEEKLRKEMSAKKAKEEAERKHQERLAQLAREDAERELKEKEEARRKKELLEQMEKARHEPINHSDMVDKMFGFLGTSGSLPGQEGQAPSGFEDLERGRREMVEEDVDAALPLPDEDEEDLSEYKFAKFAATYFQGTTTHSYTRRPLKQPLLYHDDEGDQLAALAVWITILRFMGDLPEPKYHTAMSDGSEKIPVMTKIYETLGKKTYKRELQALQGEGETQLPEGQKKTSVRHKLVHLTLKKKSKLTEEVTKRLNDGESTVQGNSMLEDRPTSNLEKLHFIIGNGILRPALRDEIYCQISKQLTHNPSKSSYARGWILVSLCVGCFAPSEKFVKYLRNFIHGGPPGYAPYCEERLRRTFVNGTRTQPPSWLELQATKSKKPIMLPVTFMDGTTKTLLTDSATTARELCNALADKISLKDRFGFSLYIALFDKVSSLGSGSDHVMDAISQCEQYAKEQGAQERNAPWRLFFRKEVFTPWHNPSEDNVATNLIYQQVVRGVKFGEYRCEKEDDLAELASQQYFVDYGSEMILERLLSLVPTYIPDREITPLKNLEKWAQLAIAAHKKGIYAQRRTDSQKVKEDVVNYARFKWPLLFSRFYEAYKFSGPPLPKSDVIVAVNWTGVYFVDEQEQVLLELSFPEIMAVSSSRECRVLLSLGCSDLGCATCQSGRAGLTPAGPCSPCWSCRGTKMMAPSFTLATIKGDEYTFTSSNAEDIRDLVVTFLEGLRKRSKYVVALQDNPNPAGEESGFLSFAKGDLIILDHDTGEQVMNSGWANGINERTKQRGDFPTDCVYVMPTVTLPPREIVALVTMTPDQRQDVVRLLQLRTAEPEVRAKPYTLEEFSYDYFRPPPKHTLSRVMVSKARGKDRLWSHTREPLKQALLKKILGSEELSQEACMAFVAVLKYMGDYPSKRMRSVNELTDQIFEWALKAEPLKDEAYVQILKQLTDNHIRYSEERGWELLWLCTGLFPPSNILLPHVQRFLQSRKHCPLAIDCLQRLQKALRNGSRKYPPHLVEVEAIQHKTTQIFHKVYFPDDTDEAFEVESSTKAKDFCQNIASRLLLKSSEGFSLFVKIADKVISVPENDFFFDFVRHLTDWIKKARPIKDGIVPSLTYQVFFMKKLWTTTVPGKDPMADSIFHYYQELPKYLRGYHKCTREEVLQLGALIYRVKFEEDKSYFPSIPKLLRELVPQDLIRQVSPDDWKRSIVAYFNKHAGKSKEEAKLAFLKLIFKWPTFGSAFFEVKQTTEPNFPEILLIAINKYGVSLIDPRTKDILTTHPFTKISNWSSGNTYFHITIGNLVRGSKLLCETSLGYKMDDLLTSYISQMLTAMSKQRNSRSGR
UniProt Q80VM7: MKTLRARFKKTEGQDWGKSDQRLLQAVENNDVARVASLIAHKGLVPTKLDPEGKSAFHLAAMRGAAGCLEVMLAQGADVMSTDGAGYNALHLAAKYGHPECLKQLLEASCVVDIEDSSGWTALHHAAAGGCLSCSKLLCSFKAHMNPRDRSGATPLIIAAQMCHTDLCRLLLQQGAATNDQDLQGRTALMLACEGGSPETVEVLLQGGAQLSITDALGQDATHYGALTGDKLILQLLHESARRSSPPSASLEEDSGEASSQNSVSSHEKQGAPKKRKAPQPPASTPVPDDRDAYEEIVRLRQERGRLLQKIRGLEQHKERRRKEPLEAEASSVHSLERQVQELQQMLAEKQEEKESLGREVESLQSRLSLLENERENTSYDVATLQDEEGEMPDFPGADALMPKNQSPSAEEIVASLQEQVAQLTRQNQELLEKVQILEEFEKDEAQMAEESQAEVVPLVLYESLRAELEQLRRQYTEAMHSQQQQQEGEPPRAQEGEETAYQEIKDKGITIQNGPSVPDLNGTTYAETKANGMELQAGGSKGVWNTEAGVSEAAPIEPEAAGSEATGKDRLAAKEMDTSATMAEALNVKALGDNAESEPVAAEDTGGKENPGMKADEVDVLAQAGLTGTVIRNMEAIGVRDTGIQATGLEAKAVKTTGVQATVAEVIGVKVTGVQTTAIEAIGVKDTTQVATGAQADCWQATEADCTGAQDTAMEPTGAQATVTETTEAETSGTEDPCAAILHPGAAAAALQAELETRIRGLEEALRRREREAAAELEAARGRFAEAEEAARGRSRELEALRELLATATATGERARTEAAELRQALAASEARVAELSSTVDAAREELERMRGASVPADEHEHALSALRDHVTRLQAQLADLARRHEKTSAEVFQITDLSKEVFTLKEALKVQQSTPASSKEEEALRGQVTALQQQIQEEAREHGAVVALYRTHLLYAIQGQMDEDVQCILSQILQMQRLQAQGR

Assays:
[1] = target: GFP-MYO7A (mouse) (mouse) (UniProt P97479); assay: co-IP; HEK293 cells co-transfected; RIPA extract; 138-1 anti-MYO7A beads, 1 hr room temperature, washed with RIPA, eluted with 2% SDS; immunoblot (anti-PDZD7 or anti-GFP)
[2] = target: ANKRD24-GFP (mouse) (mouse) (UniProt Q80VM7); assay: co-IP; HEK293 cells co-transfected; immunoprecipitation with anti-GFP antibody, detection with anti-Strep

| binding [1] | binding [2] | Binder |
| --- | --- | --- |
| binds | – | mCherry-PDZD7 (mouse), in HEK293 (natural protein, UniProt E9Q9W7 1-1021, looked up, PDZD7, mouse, cloned into pmCherry-C1; also called PDZD7 fused to mCherry; source: HEK293, transfected, in RIPA extract; not shown: mCherry, N-terminal, kept) MARGFTVGFDPLGLGELSSGSLSSVSSRGHLGSDSGSTATRYLLRKQQRLLNGPSRGIRASSPMGRVILINSPIEANSDESDIIHAVRVEKSPSGRLGFSVRGGSEHGLGIFVSKVEEGSSAERAGLCVGDKITEVNGLSLESTTMGSAVRLLTSSSCLHMMVRRMGRVPGIKFSKEKTTWVDVVNRRLVVEKCSSTPSDRSSEDGVRRIVHLYTTSDDFCLGFNIRGGKEFGLGIYVSKVDHGGLAEENGIKVGDQVLAANGVRFDDISHSQAVEVLKGQTHIMLTIKETGRYPAYKEMVSEYCWLDRLSNGVLQQLSPASESSSSVSSYASSAPCSSGSLPSDRMDVCLGPEEPTSHGPGWGRADTAMQTEPDLDSRVETWCSVRPTVILRDTAIRSDGPSSTRHLDSALSESPKTALLLALSRPRTPITRSQSHLTLWEEKKQRKKEKSGSSGEKGALQRSKTLMNLFFKGGRQGRPAGDGHREAWTLDSRSPTKVRPRLDLEKAGSVGPVQKFVTWRLRRDRERGRALLSARSGSPSGQAPTVNEQVQAWESRRPLIQDLARRLLTDDEVLAVTRHCSRYVHEGGVEDLVRPLLAILDRPTKLLLLRDIRSVVAPTDLGRFDSMVMPVELEAFEALKSRAVGPSALRPTRQDTPPKRHLITPVPDSRGGFYLLPVNSSEDEDGEIREKLGVLKVSLGASAPHHKGIPPLQDVPVDAFSLRRGACAPPPQPPPVAPRPPRPNWLLTEPLSREDTQQNQSQTPAQSCSRSRSRSRSRSHSRGQGKSPGRRRSPSPAPIATAATANGRYHRPRKARPLLPRLLDGQVAKVGARQGPLENGRIAEEAVGNVSTGALRTITLSKMKQSLGISISGGIESKVQPMVKIEKIFPGGAAFLCGDLQAGFELVAVDGESLEQVTHQRAVDTIRRAYRNKAREPMELVVRVPGPGLLPLASDLRVVKDQSLAPDCPSALGPVDDARILTQLPPPEARQLQQSLSSALKVPQSIPKLSPILKDPHDPS |
| – | no binding | PDZD7-Strep (mouse) (protein, UniProt E9Q9W7 1-1021) MARGFTVGFDPLGLGELSSGSLSSVSSRGHLGSDSGSTATRYLLRKQQRLLNGPSRGIRASSPMGRVILINSPIEANSDESDIIHAVRVEKSPSGRLGFSVRGGSEHGLGIFVSKVEEGSSAERAGLCVGDKITEVNGLSLESTTMGSAVRLLTSSSCLHMMVRRMGRVPGIKFSKEKTTWVDVVNRRLVVEKCSSTPSDRSSEDGVRRIVHLYTTSDDFCLGFNIRGGKEFGLGIYVSKVDHGGLAEENGIKVGDQVLAANGVRFDDISHSQAVEVLKGQTHIMLTIKETGRYPAYKEMVSEYCWLDRLSNGVLQQLSPASESSSSVSSYASSAPCSSGSLPSDRMDVCLGPEEPTSHGPGWGRADTAMQTEPDLDSRVETWCSVRPTVILRDTAIRSDGPSSTRHLDSALSESPKTALLLALSRPRTPITRSQSHLTLWEEKKQRKKEKSGSSGEKGALQRSKTLMNLFFKGGRQGRPAGDGHREAWTLDSRSPTKVRPRLDLEKAGSVGPVQKFVTWRLRRDRERGRALLSARSGSPSGQAPTVNEQVQAWESRRPLIQDLARRLLTDDEVLAVTRHCSRYVHEGGVEDLVRPLLAILDRPTKLLLLRDIRSVVAPTDLGRFDSMVMPVELEAFEALKSRAVGPSALRPTRQDTPPKRHLITPVPDSRGGFYLLPVNSSEDEDGEIREKLGVLKVSLGASAPHHKGIPPLQDVPVDAFSLRRGACAPPPQPPPVAPRPPRPNWLLTEPLSREDTQQNQSQTPAQSCSRSRSRSRSRSHSRGQGKSPGRRRSPSPAPIATAATANGRYHRPRKARPLLPRLLDGQVAKVGARQGPLENGRIAEEAVGNVSTGALRTITLSKMKQSLGISISGGIESKVQPMVKIEKIFPGGAAFLCGDLQAGFELVAVDGESLEQVTHQRAVDTIRRAYRNKAREPMELVVRVPGPGLLPLASDLRVVKDQSLAPDCPSALGPVDDARILTQLPPPEARQLQQSLSSALKVPQSIPKLSPILKDPHDPS |
